# Reference: patent US10611797B2, “Peptide having anticancer activity, and pharmaceutical composition and dietary supplement composition for preventing and treating cancer, both of which contain same as active ingredient” (IUCF-HYU (INDUSTRY-UNIVERSITY COOPERATION FOUNDATION …, priority 2015, dated 2020)
# Where a chain is given by its changes, count along the chain named. For part of these data: A weaker result is weaker than the reference pair of the same experiment. Tags and fusion partners may be left off the protein sequences shown. For part of these data: For at least one entry, the source does not settle the construct or the ends of the probe. For part of these data: Where cells or extracts were used, other partners may take part.
# How the values were obtained:
# GST-CP2c R387A = target: T1, GST-CP2c R387A (UniProt Q9ERA0); assay: pull-down; conditions: DNA-IP; R387 stated important for DNA binding; purified recombinant protein; protein details: GST fusion, E. coli; label: 32P
# T1 sequence (looked up, limits assumed): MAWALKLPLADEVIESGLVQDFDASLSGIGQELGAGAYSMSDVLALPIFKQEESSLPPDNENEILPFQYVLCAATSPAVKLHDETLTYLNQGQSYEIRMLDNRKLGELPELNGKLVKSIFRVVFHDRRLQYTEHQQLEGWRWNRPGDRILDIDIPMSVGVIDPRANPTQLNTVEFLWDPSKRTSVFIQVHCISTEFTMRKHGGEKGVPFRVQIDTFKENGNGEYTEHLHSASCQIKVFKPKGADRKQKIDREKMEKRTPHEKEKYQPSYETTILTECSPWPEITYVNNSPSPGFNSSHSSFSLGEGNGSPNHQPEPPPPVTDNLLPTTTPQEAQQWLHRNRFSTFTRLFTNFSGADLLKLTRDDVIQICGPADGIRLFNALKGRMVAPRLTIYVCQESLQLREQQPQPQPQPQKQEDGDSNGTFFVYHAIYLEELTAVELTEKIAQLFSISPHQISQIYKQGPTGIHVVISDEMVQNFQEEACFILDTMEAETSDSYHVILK
# [1] = target: T2, CP2c (TFCP2) (Mus musculus) (UniProt Q9ERA0); assay: pull-down; conditions: DNA immunoprecipitation with anti-CP2c; binding inhibited by Peptide 5 and Peptide 5-2, negligibly by Peptide 8 and 5-1; room temperature; protein in an …; label: 32P
# T2 sequence (looked up, limits assumed): T1 sequence (looked up, limits assumed) with A387R
# GST-CP2c R341A = target: T3, GST-CP2c R341A (UniProt Q9ERA0); assay: pull-down; conditions: DNA-IP; R341 stated important for DNA binding; purified recombinant protein; protein details: GST fusion, E. coli; label: 32P
# T3 sequence (looked up, limits assumed): T1 sequence (looked up, limits assumed) with R341A, A387R
# GST-CP2c R339A = target: T4, GST-CP2c R339A (UniProt Q9ERA0); assay: pull-down; conditions: DNA-IP; R339 stated important for DNA binding; purified recombinant protein; protein details: GST fusion, E. coli; label: 32P
# T4 sequence (looked up, limits assumed): T1 sequence (looked up, limits assumed) with R339A, A387R
# GST-CP2c E332A = target: T5, GST-CP2c E332A (UniProt Q9ERA0); assay: pull-down; conditions: DNA-IP; E332 stated important for DNA binding; purified recombinant protein; protein details: GST fusion, E. coli; label: 32P
# T5 sequence (looked up, limits assumed): T1 sequence (looked up, limits assumed) with E332A, A387R
# Flag-CP2c = target: T6, Flag-CP2c (UniProt Q9ERA0); assay: activity in cells; conditions: luciferase reporter in 293T; transactivation inhibited by Peptide 5C and 5-2C; protein in cells; protein details: Flag, expressed in 293T
# T6 sequence (looked up, limits assumed): T1 sequence (looked up, limits assumed) with A387R
Sequence,binding result (GST-CP2c R387A),binding result [1],binding result (GST-CP2c R341A),binding result (GST-CP2c R339A),binding result (GST-CP2c E332A),activity on this sequence (Flag-CP2c)
GATCCCAAGTTTTACTCGGTAGAGCAAGCACAAACCAGG (double strand) [alpha-globin promoter CP2c site probe],binds more weakly,binds,binds more weakly,binds more weakly,binds more weakly,–
"CGAGTCCATCTGATAAGACTTATCTGCTGCCCCAGAGCAGGCCAGAGCTGGCGTAAGCCCCAG (double strand) [GATA-1 enhancer reporter, wild type CP2c sites]",–,–,–,–,–,active
